In publication PMC7819943, “Rice protein-binding microarrays: a tool to detect cis-acting elements near promoter regions in rice” one finds binding signal data, which are given here for 42 sequences.

Protein sequences, listed by entry. Tags and fused reporters are not part of them.
UniProt Q0JBA9, entry or part of it: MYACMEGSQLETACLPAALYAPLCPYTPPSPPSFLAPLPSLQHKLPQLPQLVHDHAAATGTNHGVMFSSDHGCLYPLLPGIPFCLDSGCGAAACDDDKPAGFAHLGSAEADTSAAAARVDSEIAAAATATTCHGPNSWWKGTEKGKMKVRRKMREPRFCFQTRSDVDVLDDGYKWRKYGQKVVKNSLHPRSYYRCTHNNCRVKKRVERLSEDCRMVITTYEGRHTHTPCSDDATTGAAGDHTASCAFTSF

This is one part of the list.

The target of the experiment is OsWRKY34 (Oryza sativa, UniProt Q0JBA9 1-250). Put plainly: protein-binding microarray (RPBM); PBS, 2% BSA, 51.3 ng/ul salmon testes DNA, 50 uM zinc acetate, 200 nM TF, 25 C, 1 h; high values mean tight binding. Conditions: protein: recombinant; tags: N-terminal polyhistidine and DsRed monomer fusion (pET32a); label: CyDye5-dUTP incorporated in the synthesized complementary strand; 3' TTTTT single-stranded linker to array surface; dsDNA, one strand shown. Summed up: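 A custom Agilent array was converted to double-stranded form by primer extension with Cy5-dUTP and blocked with 2% BSA. Protein at 200 nM in PBS with 2% BSA, salmon testes DNA and 50 µM zinc acetate was applied for 1 h at 25 °C, followed by washing. The proteins were polyhistidine–DsRed N-terminal fusions of transcription factors, expressed in E. coli BL21-CodonPlus and Ni–NTA-purified. The binding signal is per-feature fluorescence intensity (arbitrary units) from an Axon 4000B scanner.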
With “TTCTCCCCTCCTCCAAGTTGCATCTCACTTTTCCTCCTTCCGGAGTCACCTAGTGCAG”, the binding signal is 8050 fluorescence intensity (a.u.).
The value for “CATCGCCTCGCCTCTTCGTTTTCGGTTGCACGCTCGCTTGCGGAGTCACCTAGTGCAG” was 11500 fluorescence intensity (a.u.); that for “TTACAATTTAAGGTATGCTCCATGTTGCTTATTCCTTACTCGGAGTCACCTAGTGCAG” was 8040 fluorescence intensity (a.u.); that for “GACACCGCTCGTCTTCGTCAATCGAACAGTTCGATCAAGCCGGAGTCACCTAGTGCAG” was 8480 fluorescence intensity (a.u.).
Consider “AACGGCTACTATCTCCATCTCTACCCCATCCGGGCCGTCCCGGAGTCACCTAGTGCAG”, for which the binding signal is 9550 fluorescence intensity (a.u.).
Consider “TGGAATGGACGGATGGTTGGTTGGTTGGATGGATGACGTTCGGAGTCACCTAGTGCAG”, for which the binding signal is 10300 fluorescence intensity (a.u.).
Consider “CAACTATTACTCTCTCCGGTTCCATATTAATTGACGTTTTCGGAGTCACCTAGTGCAG”, for which the binding signal was 9300 fluorescence intensity (a.u.).
Turning to “GTGCGTTTGTGTTCCTGTTGGGGATTGGCCAGTGAAATTACGGAGTCACCTAGTGCAG”, the binding signal was 11400 fluorescence intensity (a.u.).
For “ATTCACCGCCACGACACTGGTATTTTTAATGAATATTTTTCGGAGTCACCTAGTGCAG”, the binding signal is 8270 fluorescence intensity (a.u.).
“TTAGGTGGCCCAGGAATTCACCATTTGCAACAGTTTTATCCGGAGTCACCTAGTGCAG”: the binding signal is 8150 fluorescence intensity (a.u.).
The value for “CTTGAGTTTGTTAATATGGCTTGAGTTTGGTAATTAGGGGCGGAGTCACCTAGTGCAG” was 12300 fluorescence intensity (a.u.).
The same measure for “CATGTACCGTGATTGACCCCAACACACACTACGCTACGTTCGGAGTCACCTAGTGCAG”: 8140 fluorescence intensity (a.u.); for “CATGATTTTTAGATCTCTTGTGGTAAATTTTGCCTTTTTTCGGAGTCACCTAGTGCAG”: 9660 fluorescence intensity (a.u.).
“GAAGGTACTACGGCATATTGTGATGAAAATGTTTCCGCCTCGGAGTCACCTAGTGCAG”: the binding signal is 8080 fluorescence intensity (a.u.).
Regarding “TAACTGTATTTTAAATTATGCTAGGACATTGCTTTTTTTGCGGAGTCACCTAGTGCAG”, the binding signal was 8290 fluorescence intensity (a.u.).
The same measure for “CTTTACCACTGGCCATTTACTAAAACCTCTCCATGATATTCGGAGTCACCTAGTGCAG”: 10800 fluorescence intensity (a.u.).
For “GACCGTCGCGTCCATCTGCACTGCCACCTGCACGGCAGCCCGGAGTCACCTAGTGCAG”, the binding signal was 10000 fluorescence intensity (a.u.).
Take “CAACTCAACTGCACCCTCTCTTTTGTTGTACTTTTCTTTGCGGAGTCACCTAGTGCAG”: the binding signal is 9070 fluorescence intensity (a.u.).
Turning to “CCGACTCAACCATTGCATGACACTACTGTTATTTTCCTAGCGGAGTCACCTAGTGCAG”, the binding signal is 9900 fluorescence intensity (a.u.).
Take “TTGTTTCATCGCACCTCTTGATTACTGATAATTTCCTATACGGAGTCACCTAGTGCAG”: the binding signal is 9340 fluorescence intensity (a.u.).
The same measure for “TTCTCCGACGAAGCCCATCCTTGGCGAAGCCCGTGTGTTCCGGAGTCACCTAGTGCAG”: 8080 fluorescence intensity (a.u.).
For the sequence “CGCCGTCCATCTCCATTAATGCCTCCATCCACCTCGCCCACGGAGTCACCTAGTGCAG”, the binding signal was 14400 fluorescence intensity (a.u.).
The same measure for “GTCGTCGTCGTCGTCACCGGGTCTTCGTCGAGACCCTGACCGGAGTCACCTAGTGCAG”: 8050 fluorescence intensity (a.u.); for “GCGCTTGTGACGCGCGCGTTTGGTGCTGTGGACTGTATGTCGGAGTCACCTAGTGCAG”: 8110 fluorescence intensity (a.u.).
The same measure for “AACCCTCTCCATTTGCAAATCGCAACCATCTCGTCAACAACGGAGTCACCTAGTGCAG”: 11100 fluorescence intensity (a.u.); for “GATGAACACCAGGTCAACACCGCCATGTCAACGCCACATTCGGAGTCACCTAGTGCAG”: 8160 fluorescence intensity (a.u.).
For the sequence “ATATCTTCAACTCACCGTAATGGACAAAACATTTAAAATACGGAGTCACCTAGTGCAG”, the binding signal was 12700 fluorescence intensity (a.u.).
Consider “CCAAGTACATTTTTTTCGTTTAATCATTTTTTCATCTTGTCGGAGTCACCTAGTGCAG”, for which the binding signal was 11800 fluorescence intensity (a.u.).
As for “TTGCCCATTCTTGTCAAGCGGAGCAGAGTACACCGCCTACCGGAGTCACCTAGTGCAG”, the binding signal was 8090 fluorescence intensity (a.u.).
On to “TCACCGATCCGCGTACTCTCTCCTCATTGGCTGCCTCCTCCGGAGTCACCTAGTGCAG”, for which the binding signal is 9060 fluorescence intensity (a.u.).
Consider “CCTCCACTCGTTCCTACTACTTCCTGGTTGCATTCGCCGCCGGAGTCACCTAGTGCAG”, for which the binding signal is 8090 fluorescence intensity (a.u.).
The value for “GGACTAACAAGTGGGCCCATATTTTTTTATTTTATCCTTTCGGAGTCACCTAGTGCAG” was 9900 fluorescence intensity (a.u.).
As to “TCCTTTCCTTTCCTTCTCCACTCCGCCATCCGCAACCGCCCGGAGTCACCTAGTGCAG”, the binding signal was 11100 fluorescence intensity (a.u.).
The same measure for “ATTCCCTTGCGTTTTGATCGTGTAGCCCAATACGACGGCCCGGAGTCACCTAGTGCAG”: 9340 fluorescence intensity (a.u.); for “AGCCCATTTATATCTCACGTTTCATTGAAGTCCATTTTTTCGGAGTCACCTAGTGCAG”: 13900 fluorescence intensity (a.u.).
The value for “ATGGGAGGTGGGTGGTACCGTGGTGGTGGTCGCAGATCTGCGGAGTCACCTAGTGCAG” was 27200 fluorescence intensity (a.u.).
The value for “TAGCCCAGTTTGTATAATAGAATTTGTTATTTATTTGCGTCGGAGTCACCTAGTGCAG” was 8410 fluorescence intensity (a.u.); that for “GGTCTCGTTCCCGCCGCATTTGCTTAACATTCTCAAACCGCGGAGTCACCTAGTGCAG” was 8420 fluorescence intensity (a.u.); that for “TTCATTCGTACTGGTACATGCATTCGCATCTTCTTCGCCTCGGAGTCACCTAGTGCAG” was 9420 fluorescence intensity (a.u.).
As to “CATCGTCCACCCATGTTCCGCCGCCATATCCGCTCTCCGCCGGAGTCACCTAGTGCAG”, the binding signal is 10900 fluorescence intensity (a.u.).
For “ATCAGGCCCACGGCCCAATCGCCGTCCACCACCCACCACCCGGAGTCACCTAGTGCAG”, the binding signal is 8690 fluorescence intensity (a.u.).
The value for “ACCCCAACCCATCCACCGAGACAGGAATGCTCTCACGCAACGGAGTCACCTAGTGCAG” was 8310 fluorescence intensity (a.u.).
